In article PMC8380656, “The structure and flexibility analysis of the Arabidopsis synaptotagmin 1 reveal the basis of its regulation at membrane contact sites” (Life Science Alliance, 2021):
Results are given in words; binding and its absence hold for the method and conditions named. Tags and fused reporters may be left off the sequences shown.

Biological target: SYT1C2AB (Arabidopsis synaptotagmin 1, C2A and C2B domains, residues K253-C terminus) (Arabidopsis) (UniProt Q9SKR2)
Assay: SAXS (SEC-SAXS); 45 ul of SYT1C2AB at 10 mg ml^-1 injected onto Superdex 200 increase 3.2/300 at 20°C; 50 mM Tris pH 8, 50 mM NaCl; with 1 mM Ca2+ or 1 mM EGTA (no significant differences); molecular mass from the Porod volume; both purified

B1: SYT1C2AB (Arabidopsis synaptotagmin 1, C2A and C2B domains, residues K253-C terminus) (domain or fragment, UniProt Q9SKR2 253-541)
chain: KAFRRPVGIVHVKVVRAVGLRKKDLMGGADPFVKIKLSEDKIPSKKTTVKHKNLNPEWNEEFKFSVRDPQTQVLEFSVYDWEQVGNPEKMGMNVLALKEMVPDEHKAFTLELRKTLDGGEDGQPPDKYRGKLEVELLYKPFTEEEMPKGFEETQAVQKAPEGTPAAGGMLVVIVHSAEDVEGKHHTNPYVRIYFKGEERKTKHVKKNRDPRWNEEFTFMLEEPPVREKLHVEVLSTSSRIGLLHPKETLGYVDIPVVDVVNNKRMNQKFHLIDSKNGKIQIELEWRTAS
With B1 the binding was “no binding (tested: 10 mg ml^-1 injected)”.
